# Test results published in the supplement of paper PMC12819154, “High-throughput peptide-centric local stability assay extends protein–ligand identification to membrane proteins, tissues and bacteria” (Nature Structural & Molecular Biology, 2025).
# Sequences of proteins named here, by UniProt entry; tags and fusion partners are left off. A change or cut given only in a name is not applied to a line headed by its entry.
# UniProt Q01147: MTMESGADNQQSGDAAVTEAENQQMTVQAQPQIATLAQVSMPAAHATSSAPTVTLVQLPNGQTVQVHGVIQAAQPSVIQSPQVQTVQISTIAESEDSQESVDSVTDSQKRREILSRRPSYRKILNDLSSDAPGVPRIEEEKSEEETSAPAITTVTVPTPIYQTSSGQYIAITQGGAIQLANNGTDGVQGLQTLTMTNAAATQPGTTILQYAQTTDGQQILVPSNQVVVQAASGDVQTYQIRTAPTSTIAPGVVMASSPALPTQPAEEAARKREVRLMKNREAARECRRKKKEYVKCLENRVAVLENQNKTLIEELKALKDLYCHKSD
# UniProt P97371: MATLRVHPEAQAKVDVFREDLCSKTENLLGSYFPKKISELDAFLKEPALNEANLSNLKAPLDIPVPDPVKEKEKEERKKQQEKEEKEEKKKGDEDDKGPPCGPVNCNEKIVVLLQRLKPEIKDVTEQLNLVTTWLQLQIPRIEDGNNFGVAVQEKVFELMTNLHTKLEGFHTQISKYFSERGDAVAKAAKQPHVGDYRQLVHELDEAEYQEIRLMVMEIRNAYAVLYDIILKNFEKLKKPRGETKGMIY
# UniProt P70426, whole entry: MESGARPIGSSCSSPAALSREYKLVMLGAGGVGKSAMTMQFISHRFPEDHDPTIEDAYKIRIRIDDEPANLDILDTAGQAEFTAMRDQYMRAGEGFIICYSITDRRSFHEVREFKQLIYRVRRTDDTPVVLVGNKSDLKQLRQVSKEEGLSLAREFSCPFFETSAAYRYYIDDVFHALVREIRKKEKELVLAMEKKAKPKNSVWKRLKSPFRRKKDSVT
# UniProt P97310, whole entry: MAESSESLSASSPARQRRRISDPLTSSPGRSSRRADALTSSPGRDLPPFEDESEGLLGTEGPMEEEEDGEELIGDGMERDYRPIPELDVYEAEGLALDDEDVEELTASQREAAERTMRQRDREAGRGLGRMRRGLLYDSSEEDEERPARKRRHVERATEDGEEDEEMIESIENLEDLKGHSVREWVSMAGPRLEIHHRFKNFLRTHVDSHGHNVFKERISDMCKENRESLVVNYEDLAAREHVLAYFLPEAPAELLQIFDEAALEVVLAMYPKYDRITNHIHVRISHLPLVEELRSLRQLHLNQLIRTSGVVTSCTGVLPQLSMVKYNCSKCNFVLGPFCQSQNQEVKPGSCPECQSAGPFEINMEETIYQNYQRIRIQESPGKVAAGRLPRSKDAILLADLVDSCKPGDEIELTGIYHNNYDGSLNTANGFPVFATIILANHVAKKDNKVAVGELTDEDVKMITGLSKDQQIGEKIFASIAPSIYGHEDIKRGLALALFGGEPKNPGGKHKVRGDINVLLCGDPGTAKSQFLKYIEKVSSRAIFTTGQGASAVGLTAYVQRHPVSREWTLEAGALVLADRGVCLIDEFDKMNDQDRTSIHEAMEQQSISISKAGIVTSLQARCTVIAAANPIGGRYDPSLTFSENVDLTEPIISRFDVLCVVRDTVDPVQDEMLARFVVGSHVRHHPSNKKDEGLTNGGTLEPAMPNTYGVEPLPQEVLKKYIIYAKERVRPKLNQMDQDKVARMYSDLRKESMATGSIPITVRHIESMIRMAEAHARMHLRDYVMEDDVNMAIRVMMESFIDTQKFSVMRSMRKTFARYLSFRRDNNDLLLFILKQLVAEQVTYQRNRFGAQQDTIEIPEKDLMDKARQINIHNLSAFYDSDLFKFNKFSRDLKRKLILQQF
# UniProt P97820: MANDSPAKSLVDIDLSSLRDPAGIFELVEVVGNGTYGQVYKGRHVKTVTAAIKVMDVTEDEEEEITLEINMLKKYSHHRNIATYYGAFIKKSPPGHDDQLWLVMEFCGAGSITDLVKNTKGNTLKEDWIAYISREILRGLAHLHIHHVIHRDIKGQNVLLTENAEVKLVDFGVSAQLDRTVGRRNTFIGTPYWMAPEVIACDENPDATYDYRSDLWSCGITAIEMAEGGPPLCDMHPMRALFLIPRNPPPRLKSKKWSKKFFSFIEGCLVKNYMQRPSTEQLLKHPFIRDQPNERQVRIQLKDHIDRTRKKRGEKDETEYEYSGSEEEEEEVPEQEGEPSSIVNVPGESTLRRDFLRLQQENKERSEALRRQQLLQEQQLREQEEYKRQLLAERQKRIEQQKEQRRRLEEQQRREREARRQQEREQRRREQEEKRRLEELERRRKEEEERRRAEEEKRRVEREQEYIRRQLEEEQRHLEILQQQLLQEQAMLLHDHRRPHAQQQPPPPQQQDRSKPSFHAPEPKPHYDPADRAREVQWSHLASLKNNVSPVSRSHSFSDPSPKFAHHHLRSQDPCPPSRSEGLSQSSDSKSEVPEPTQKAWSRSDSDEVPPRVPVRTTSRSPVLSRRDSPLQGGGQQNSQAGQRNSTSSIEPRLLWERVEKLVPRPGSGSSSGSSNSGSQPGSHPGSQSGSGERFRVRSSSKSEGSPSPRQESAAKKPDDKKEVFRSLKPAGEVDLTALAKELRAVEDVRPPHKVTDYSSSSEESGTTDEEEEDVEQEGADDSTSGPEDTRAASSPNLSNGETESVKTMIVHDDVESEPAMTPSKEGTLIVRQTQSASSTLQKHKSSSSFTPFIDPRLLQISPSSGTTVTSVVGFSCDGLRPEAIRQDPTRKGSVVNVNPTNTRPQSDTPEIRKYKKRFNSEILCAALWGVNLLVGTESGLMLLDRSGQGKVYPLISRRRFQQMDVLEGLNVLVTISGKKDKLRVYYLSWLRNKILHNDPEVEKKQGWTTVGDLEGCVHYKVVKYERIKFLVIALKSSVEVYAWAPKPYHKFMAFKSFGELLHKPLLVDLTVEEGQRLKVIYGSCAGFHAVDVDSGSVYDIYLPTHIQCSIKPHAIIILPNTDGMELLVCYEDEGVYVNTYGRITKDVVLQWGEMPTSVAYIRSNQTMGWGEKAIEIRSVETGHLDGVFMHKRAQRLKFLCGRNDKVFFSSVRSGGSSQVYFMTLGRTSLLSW
# UniProt Q00547: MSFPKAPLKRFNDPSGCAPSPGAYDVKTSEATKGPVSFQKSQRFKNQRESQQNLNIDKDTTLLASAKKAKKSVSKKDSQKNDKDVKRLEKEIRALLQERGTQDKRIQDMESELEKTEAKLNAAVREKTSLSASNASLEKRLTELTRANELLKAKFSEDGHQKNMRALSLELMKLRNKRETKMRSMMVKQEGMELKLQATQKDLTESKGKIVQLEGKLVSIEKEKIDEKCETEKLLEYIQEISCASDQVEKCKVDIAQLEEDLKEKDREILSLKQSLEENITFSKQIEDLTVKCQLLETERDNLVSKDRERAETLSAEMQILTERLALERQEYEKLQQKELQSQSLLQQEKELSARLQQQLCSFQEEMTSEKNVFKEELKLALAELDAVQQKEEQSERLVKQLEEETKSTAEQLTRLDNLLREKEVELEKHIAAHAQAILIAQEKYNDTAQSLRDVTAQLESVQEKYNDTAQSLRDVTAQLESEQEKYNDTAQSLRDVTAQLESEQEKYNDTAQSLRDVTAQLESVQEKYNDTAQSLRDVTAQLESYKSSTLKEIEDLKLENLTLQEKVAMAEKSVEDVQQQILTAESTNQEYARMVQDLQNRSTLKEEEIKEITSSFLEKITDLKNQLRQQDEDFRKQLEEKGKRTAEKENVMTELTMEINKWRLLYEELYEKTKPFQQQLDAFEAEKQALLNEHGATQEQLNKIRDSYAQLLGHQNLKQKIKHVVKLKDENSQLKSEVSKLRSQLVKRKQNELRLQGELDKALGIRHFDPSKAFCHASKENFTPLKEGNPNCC
# UniProt Q00420, whole entry: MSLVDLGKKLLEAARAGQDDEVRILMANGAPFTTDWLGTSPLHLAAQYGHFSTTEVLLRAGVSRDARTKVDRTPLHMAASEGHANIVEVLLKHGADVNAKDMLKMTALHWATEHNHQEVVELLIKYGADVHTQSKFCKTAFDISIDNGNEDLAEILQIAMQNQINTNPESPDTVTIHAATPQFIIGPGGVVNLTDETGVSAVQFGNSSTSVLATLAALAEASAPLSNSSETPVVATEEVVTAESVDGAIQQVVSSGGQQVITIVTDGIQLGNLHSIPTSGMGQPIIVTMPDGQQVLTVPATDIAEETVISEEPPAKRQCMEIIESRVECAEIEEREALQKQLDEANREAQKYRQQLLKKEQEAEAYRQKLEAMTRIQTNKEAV
# UniProt P63330, whole entry: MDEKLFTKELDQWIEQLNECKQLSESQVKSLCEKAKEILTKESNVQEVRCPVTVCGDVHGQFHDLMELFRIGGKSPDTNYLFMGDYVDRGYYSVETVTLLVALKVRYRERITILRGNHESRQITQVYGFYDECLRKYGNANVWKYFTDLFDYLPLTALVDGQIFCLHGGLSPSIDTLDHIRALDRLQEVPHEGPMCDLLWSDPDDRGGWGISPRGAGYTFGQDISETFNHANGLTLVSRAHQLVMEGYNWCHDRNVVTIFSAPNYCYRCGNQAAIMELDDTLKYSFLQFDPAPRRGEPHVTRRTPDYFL
# UniProt Q01149: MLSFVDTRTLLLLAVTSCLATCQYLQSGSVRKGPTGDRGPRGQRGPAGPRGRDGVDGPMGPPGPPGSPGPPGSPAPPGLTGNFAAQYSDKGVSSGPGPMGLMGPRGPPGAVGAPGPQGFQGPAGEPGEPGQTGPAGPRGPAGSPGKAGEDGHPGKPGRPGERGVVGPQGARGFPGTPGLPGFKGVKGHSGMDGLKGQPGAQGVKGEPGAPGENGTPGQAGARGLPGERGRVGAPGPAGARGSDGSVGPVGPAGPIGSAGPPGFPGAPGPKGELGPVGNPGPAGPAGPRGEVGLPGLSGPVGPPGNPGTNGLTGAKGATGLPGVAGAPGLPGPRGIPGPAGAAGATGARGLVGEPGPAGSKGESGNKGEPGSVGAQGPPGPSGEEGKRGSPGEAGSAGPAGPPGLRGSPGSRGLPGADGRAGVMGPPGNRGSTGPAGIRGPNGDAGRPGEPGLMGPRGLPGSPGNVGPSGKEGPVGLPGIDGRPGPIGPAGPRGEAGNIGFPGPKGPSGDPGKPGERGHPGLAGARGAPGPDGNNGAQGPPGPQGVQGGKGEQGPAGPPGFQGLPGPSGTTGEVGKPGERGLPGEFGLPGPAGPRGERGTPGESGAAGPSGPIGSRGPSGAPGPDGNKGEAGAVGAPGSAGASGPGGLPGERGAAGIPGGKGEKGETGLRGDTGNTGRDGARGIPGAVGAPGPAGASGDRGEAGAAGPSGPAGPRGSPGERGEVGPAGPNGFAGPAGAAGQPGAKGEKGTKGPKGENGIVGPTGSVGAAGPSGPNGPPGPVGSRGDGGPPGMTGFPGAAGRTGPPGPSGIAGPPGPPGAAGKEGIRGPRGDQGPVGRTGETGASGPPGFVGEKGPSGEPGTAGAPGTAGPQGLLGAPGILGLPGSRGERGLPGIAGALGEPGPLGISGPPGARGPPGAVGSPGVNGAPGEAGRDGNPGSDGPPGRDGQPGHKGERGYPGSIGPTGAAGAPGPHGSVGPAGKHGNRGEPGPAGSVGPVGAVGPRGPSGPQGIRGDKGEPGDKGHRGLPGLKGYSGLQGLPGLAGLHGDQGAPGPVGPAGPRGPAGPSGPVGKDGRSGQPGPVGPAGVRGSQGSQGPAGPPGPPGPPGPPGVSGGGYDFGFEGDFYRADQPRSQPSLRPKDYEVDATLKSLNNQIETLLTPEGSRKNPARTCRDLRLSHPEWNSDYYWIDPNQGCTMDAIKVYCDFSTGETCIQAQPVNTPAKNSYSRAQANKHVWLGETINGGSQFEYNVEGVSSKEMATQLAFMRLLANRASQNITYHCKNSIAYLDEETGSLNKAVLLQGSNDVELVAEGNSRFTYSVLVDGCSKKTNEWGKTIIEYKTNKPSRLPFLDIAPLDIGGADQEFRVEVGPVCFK
# This is one part of the list. Small differences around the control level are noise.
# Compound: CN[C@@H]1C[C@H]2O[C@@](C)([C@@H]1OC)n1c3ccccc3c3c4c(c5c6ccccc6n2c5c31)C(=O)NC4 [staurosporine]
# Assay: log2 fold change of tryptic peptide abundance, ligand vs vehicle (limited proteolysis) (log2 ratio); higher = more trypsin-susceptible (destabilized)
# Settings: ligand concentration: 20 uM; sample: mouse liver crude lysate; replicate design: treated separately
row,Target,log2 fold change
1,"UniProt Q01147 (peptide sequence: KILNDLSSDAPGVPR, peptide start residue: 122)",-0.112
2,"UniProt P97371 (peptide sequence: VFELMTNLHTK, peptide start residue: 156)",0.213
3,"UniProt P70426 (peptide sequence: RTDDTPVVLVGNK, peptide start residue: 123)",0.482
4,"UniProt Q02384 (peptide sequence: KKFDHDALNSK, peptide start residue: 1154)",1.01
5,"UniProt P97310 (peptide sequence: FVVGSHVR, peptide start residue: 678)",0.2
6,"UniProt P97863 (peptide sequence: DQDMSSPTTMK, peptide start residue: 307)",0.135
7,"UniProt P97820 (peptide sequence: SKPSFHAPEPKPHYDPADR, peptide start residue: 514)",0.494
8,"UniProt Q00547 (peptide sequence: LKDENSQLK, peptide start residue: 728)",-0.0989
9,"UniProt Q00420 (peptide sequence: QCMEIIESR, peptide start residue: 318)",0.143
10,"UniProt P63330 (peptide sequence: QLSESQVK, peptide start residue: 22)",-0.442
11,"UniProt Q01149 (peptide sequence: SQPSLRPK, peptide start residue: 1130)",0.206
